# The list shows a part of the results.
# B1: PX14375D-bvu-513-34-513 (Bacteroides vulgatus) (protein)
# chain: TEDTFWKDETDFNLALTSCYTPLKNALNGGYYGTRGVMLRIARADEVDFRNDISDVYTVNRFTNSNTNSLTQGMFYQFYNALYRTNSIMQKLEEKKEQFSTDFQNSVKGECLFIRGFYLFQLAKEFKDAPLRLTASQSPSTFPLAKSSQADIWAQAKEDLKTAASLLPITNKIGKPTQGAAYAALGKIYVYEENWQEAINVLEPLTQNPYTYKLVEDFNWNFDDTHENNAESIFELLIEDVGGTDLWGDGENINSTQSNTRPKEYAAAEVGGWYEANPTQQIMDIFWKEKDKDGNFDYRARCSVAWDYEGCTYYQRPFREVFAQDKWKTYWILKYQNWKTQKDEPAPPKSFINERAIRYADVLLMLAEAYMNKGALDTSIGYINQIRRRANLNDYSGPITKEGVFEDLVHQRAIEFFVEGERFYDLRRWGLLEQTLKTCDDTRYKNYQTGKSDNINKFNYFPIPAKELDTNPLCTPSEGW
# Legend:
# Test in all cases: glycan array binding signal (z-score within array); higher = stronger binding
# Details in all cases: glycan notation: IUPAC condensed, linker removed
# [1] = target: Fuc(a1-2)Gal
# In short: (§1)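 The Consortium for Functional Glycomics database supplied 3228 glycan arrays, of which those lacking an available protein sequence were dropped. The binding signal, a within-array Z-score, was averaged across arrays of the same protein sequence and across linkers. Negative scores can be read as non-binding.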
# [2] = target: Fuc(a1-2)Gal(b1-3)GalNAc
# In short: as §1
# [3] = target: Fuc(a1-2)Gal(b1-3)GalNAc(a1-3)[Fuc(a1-2)]Gal(b1-4)Glc
# In short: as §1
# [4] = target: Fuc(a1-2)Gal(b1-3)GalNAc(a1-3)[Fuc(a1-2)]Gal(b1-4)GlcNAc
# In short: as §1
# [5] = target: Fuc(a1-2)Gal(b1-3)GalNAc(b1-3)Gal
# In short: as §1
# [6] = target: Fuc(a1-2)Gal(b1-3)GalNAc(b1-3)Gal(a1-4)Gal(b1-4)Glc
# In short: as §1
# [7] = target: Fuc(a1-2)Gal(b1-3)GalNAc(b1-4)[Neu5Ac(a2-3)]Gal(b1-4)Glc
# In short: as §1
# [8] = target: Fuc(a1-2)Gal(b1-3)GlcNAc
# In short: as §1
# [9] = target: Fuc(a1-2)Gal(b1-3)GlcNAc(b1-2)Man(a1-3)[Fuc(a1-2)Gal(b1-3)GlcNAc(b1-2)Man(a1-6)]Man(b1-4)GlcNAc(b1-4)GlcNAc
# In short: as §1
# [10] = target: Fuc(a1-2)Gal(b1-3)GlcNAc(b1-2)Man(a1-3)[Fuc(a1-2)Gal(b1-3)GlcNAc(b1-2)Man(a1-6)]Man(b1-4)GlcNAc(b1-4)[Fuc(a1-6)]GlcNAc
# In short: as §1
# [11] = target: Fuc(a1-2)Gal(b1-3)GlcNAc(b1-3)Gal(b1-4)Glc
# In short: as §1
# [12] = target: Fuc(a1-2)Gal(b1-3)GlcNAc(b1-3)GalNAc
# In short: as §1
# [13] = target: Fuc(a1-2)Gal(b1-3)GlcNAc(b1-3)[Fuc(a1-2)Gal(b1-3)GlcNAc(b1-6)]GalNAc
# In short: as §1
# [14] = target: Fuc(a1-2)Gal(b1-3)GlcNAc(b1-3)[Gal(b1-4)GlcNAc(b1-6)]Gal(b1-4)Glc
# In short: as §1
# [15] = target: Fuc(a1-2)Gal(b1-3)GlcNAc(b1-3)[Neu5Ac(a2-6)Gal(b1-4)GlcNAc(b1-6)]Gal(b1-4)Glc
# In short: as §1
# [16] = target: Fuc(a1-2)Gal(b1-3)GlcNAc6S
# In short: as §1
# [17] = target: Fuc(a1-2)Gal(b1-3)[Fuc(a1-4)]GlcNAc
# In short: as §1
# [18] = target: Fuc(a1-2)Gal(b1-3)[Fuc(a1-4)]GlcNAc(b1-2)Man(a1-3)[Fuc(a1-2)Gal(b1-3)[Fuc(a1-4)]GlcNAc(b1-2)Man(a1-3)]Man(b1-4)GlcNAc(b1-4)GlcNAc
# In short: as §1
# [19] = target: Fuc(a1-2)Gal(b1-3)[Fuc(a1-4)]GlcNAc(b1-2)Man(a1-3)[Fuc(a1-2)Gal(b1-3)[Fuc(a1-4)]GlcNAc(b1-2)Man(a1-6)]Man(b1-4)GlcNAc(b1-4)[Fuc(a1-6)]GlcNAc(b1-4)[Fuc(a1-6)]GlcNAc
# In short: as §1
# [20] = target: Fuc(a1-2)Gal(b1-3)[Fuc(a1-4)]GlcNAc(b1-3)[Fuc(a1-3)[Gal(b1-4)]GlcNAc(b1-6)]Gal(b1-4)Glc
# In short: as §1
# [21] = target: Fuc(a1-2)Gal(b1-3)[Fuc(a1-4)]GlcNAc(b1-3)[Gal(b1-4)GlcNAc(b1-6)]Gal(b1-4)Glc
# In short: as §1
# [22] = target: Fuc(a1-2)Gal(b1-4)Glc
# In short: as §1
# [23] = target: Fuc(a1-2)Gal(b1-4)Glc6S
# In short: as §1
# [24] = target: Fuc(a1-2)Gal(b1-4)GlcNAc
# In short: as §1
# [25] = target: Fuc(a1-2)Gal(b1-4)GlcNAc(b1-2)Man
# In short: as §1
# [26] = target: Fuc(a1-2)Gal(b1-4)GlcNAc(b1-2)Man(a1-3)[Fuc(a1-2)Gal(b1-4)GlcNAc(b1-2)Man(a1-6)]Man(b1-4)GlcNAc(b1-4)GlcNAc
# In short: as §1
# [27] = target: Fuc(a1-2)Gal(b1-4)GlcNAc(b1-2)Man(a1-3)[Fuc(a1-2)Gal(b1-4)GlcNAc(b1-2)Man(a1-6)]Man(b1-4)GlcNAc(b1-4)[Fuc(a1-6)]GlcNAc
# In short: as §1
# [28] = target: Fuc(a1-2)Gal(b1-4)GlcNAc(b1-2)[Fuc(a1-2)Gal(b1-4)GlcNAc(b1-4)]Man(a1-3)[Fuc(a1-2)Gal(b1-4)GlcNAc(b1-2)Man(a1-6)]Man(b1-4)GlcNAc(b1-4)GlcNAc
# In short: as §1
# [29] = target: Fuc(a1-2)Gal(b1-4)GlcNAc(b1-3)Gal(b1-4)GlcNAc
# In short: as §1
# [30] = target: Fuc(a1-2)Gal(b1-4)GlcNAc(b1-3)Gal(b1-4)GlcNAc(b1-2)Man(a1-3)[Fuc(a1-2)Gal(b1-4)GlcNAc(b1-3)Gal(b1-4)GlcNAc(b1-2)Man(a1-6)]Man(b1-4)GlcNAc(b1-4)GlcNAc
# In short: as §1
# [31] = target: Fuc(a1-2)Gal(b1-4)GlcNAc(b1-3)Gal(b1-4)GlcNAc(b1-3)Gal(b1-4)GlcNAc
# In short: as §1
# [32] = target: Fuc(a1-2)Gal(b1-4)GlcNAc(b1-3)GalNAc
# In short: as §1
# [33] = target: Fuc(a1-2)Gal(b1-4)GlcNAc(b1-3)[Fuc(a1-2)Gal(b1-4)GlcNAc(b1-6)]GalNAc
# In short: as §1
# [34] = target: Fuc(a1-2)Gal(b1-4)GlcNAc(b1-3)[Fuc(a1-3)[Gal(b1-4)]GlcNAc(b1-6)]Gal(b1-4)Glc
# In short: as §1
# [35] = target: Fuc(a1-2)Gal(b1-4)GlcNAc(b1-6)GalNAc
# In short: as §1
# [36] = target: Fuc(a1-2)Gal(b1-4)GlcNAc6S
# In short: as §1
# [37] = target: Fuc(a1-2)Gal(b1-4)[Fuc(a1-3)]GlcNAc
# In short: as §1
# [38] = target: Fuc(a1-2)Gal(b1-4)[Fuc(a1-3)]GlcNAc(b1-2)Man(a1-3)[Fuc(a1-2)Gal(b1-4)[Fuc(a1-3)]GlcNAc(b1-2)Man(a1-6)]Man(b1-4)GlcNAc(b1-4)[Fuc(a1-6)]GlcNAc
# In short: as §1
# [39] = target: Fuc(a1-2)Gal(b1-4)[Fuc(a1-3)]GlcNAc(b1-2)[Fuc(a1-2)Gal(b1-4)[Fuc(a1-3)]GlcNAc(b1-4)]Man(a1-3)[Fuc(a1-2)Gal(b1-4)[Fuc(a1-3)]GlcNAc(b1-2)Man(a1-6)]Man(b1-4)GlcNAc(b1-4)GlcNAc
# In short: as §1
# [40] = target: Fuc(a1-2)Gal(b1-4)[Fuc(a1-3)]GlcNAc(b1-3)Gal(b1-4)[Fuc(a1-3)]GlcNAc
# In short: as §1
# [41] = target: Fuc(a1-2)Gal(b1-4)[Fuc(a1-3)]GlcNAc(b1-3)Gal(b1-4)[Fuc(a1-3)]GlcNAc(b1-3)Gal(b1-4)[Fuc(a1-3)]GlcNAc
# In short: as §1
# [42] = target: Fuc(a1-2)Gal(b1-4)[Fuc(a1-3)]GlcNAc(b1-3)GalNAc
# In short: as §1
# [43] = target: Fuc(a1-2)Gal(b1-4)[Fuc(a1-3)]GlcNAc(b1-3)[Neu5Ac(a2-6)Gal(b1-4)GlcNAc(b1-6)]Gal(b1-4)Glc
# In short: as §1
# [44] = target: Fuc(a1-2)Gal3S(b1-4)GlcNAc
# In short: as §1
# [45] = target: Fuc(a1-2)Gal6S(b1-3)GlcNAc
# In short: as §1
binder,measurement,setting,value
B1,glycan array binding signal (z-score),[1],0.373
same,glycan array binding signal (z-score),[2],-0.315
same,glycan array binding signal (z-score),[3],-0.219
same,glycan array binding signal (z-score),[4],-0.323
same,glycan array binding signal (z-score),[5],-0.056
same,glycan array binding signal (z-score),[6],-0.694
same,glycan array binding signal (z-score),[7],0.3
same,glycan array binding signal (z-score),[8],-0.892
same,glycan array binding signal (z-score),[9],1.56
same,glycan array binding signal (z-score),[10],0.425
same,glycan array binding signal (z-score),[11],-0.322
same,glycan array binding signal (z-score),[12],-0.35
same,glycan array binding signal (z-score),[13],0.041
same,glycan array binding signal (z-score),[14],0.231
same,glycan array binding signal (z-score),[15],0.112
same,glycan array binding signal (z-score),[16],0.675
same,glycan array binding signal (z-score),[17],-0.091
same,glycan array binding signal (z-score),[18],-0.328
same,glycan array binding signal (z-score),[19],2.03
same,glycan array binding signal (z-score),[20],-0.517
same,glycan array binding signal (z-score),[21],-0.295
same,glycan array binding signal (z-score),[22],-0.564
same,glycan array binding signal (z-score),[23],0.111
same,glycan array binding signal (z-score),[24],0.501
same,glycan array binding signal (z-score),[25],-0.465
same,glycan array binding signal (z-score),[26],0.421
same,glycan array binding signal (z-score),[27],-0.653
same,glycan array binding signal (z-score),[28],1.01
same,glycan array binding signal (z-score),[29],-0.715
same,glycan array binding signal (z-score),[30],0.912
same,glycan array binding signal (z-score),[31],-0.384
same,glycan array binding signal (z-score),[32],0.752
same,glycan array binding signal (z-score),[33],-0.848
same,glycan array binding signal (z-score),[34],0.673
same,glycan array binding signal (z-score),[35],-0.542
same,glycan array binding signal (z-score),[36],-0.583
same,glycan array binding signal (z-score),[37],0.049
same,glycan array binding signal (z-score),[38],1.81
same,glycan array binding signal (z-score),[39],0.053
same,glycan array binding signal (z-score),[40],-0.512
same,glycan array binding signal (z-score),[41],-0.112
same,glycan array binding signal (z-score),[42],-0.44
same,glycan array binding signal (z-score),[43],-1.17
same,glycan array binding signal (z-score),[44],-0.619
same,glycan array binding signal (z-score),[45],0.295

# Random excerpt: 2 records from the list.
binder,measurement,setting,value
B1,glycan array binding signal (z-score),[32],0.752
same,glycan array binding signal (z-score),[18],-0.328

# — the supplement of paper PMC8728848
